Laboratory results: patent US20130323813, “PEPTIDES FOR THE SPECIFIC BINDING OF RNA TARGETS” (THE UNIVERSITY OF WESTERN AUSTRALIA, published 2013)
Positions count from the first letter of the chain named. For some assays here: No signal at the amounts used counts as a negative. Tags and fusion partners may be left off the protein sequences shown. For some assays here: At least one result comes from cells or an extract, where the contact may be indirect. For some assays here: The comparison behind a weaker result is the experiment's own reference, which may not be listed here. For some assays here: For at least one entry, the source does not settle the construct or the ends of the probe.

Columns and labels:
[1] = biological target: T1, PUM1 PUF domain wild type (NQ) (Homo sapiens) (UniProt Q14671); test: one hybrid; conditions: yeast three-hybrid, purified recombinant protein
T1 sequence: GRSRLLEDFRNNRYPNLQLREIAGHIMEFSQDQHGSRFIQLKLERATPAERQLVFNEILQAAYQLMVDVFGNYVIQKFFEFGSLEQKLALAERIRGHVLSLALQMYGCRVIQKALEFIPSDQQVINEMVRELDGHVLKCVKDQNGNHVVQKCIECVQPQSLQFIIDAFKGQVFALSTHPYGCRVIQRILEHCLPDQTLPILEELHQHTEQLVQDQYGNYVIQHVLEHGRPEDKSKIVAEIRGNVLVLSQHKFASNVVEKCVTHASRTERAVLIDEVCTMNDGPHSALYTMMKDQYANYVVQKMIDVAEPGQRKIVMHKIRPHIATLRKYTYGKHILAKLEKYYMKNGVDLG

[2] = biological target: T2, PUM1 PUF GR repeat 1 (Homo sapiens) (UniProt Q14671); test: one hybrid; conditions: yeast three-hybrid; higher affinity than wild-type NRE; protein in cells; protein details: Gal4 activation domain fusion; variant of NRE
T2 sequence: T1 sequence with S36G, Q40R

[3] = biological target: T1, PUM1 PUF domain wild type (NQ) (Homo sapiens); test: EMSA; conditions: striking specificity shift stated; purified recombinant protein; label: 5'-fluorescein; variant of NRE (Fl)
[4] = tested on: T3, PUFx2 (16-repeat PUF) (Homo sapiens); test: one hybrid; conditions: yeast three-hybrid, protein in cells, protein details: Gal4 activation domain fusion
T3 sequence: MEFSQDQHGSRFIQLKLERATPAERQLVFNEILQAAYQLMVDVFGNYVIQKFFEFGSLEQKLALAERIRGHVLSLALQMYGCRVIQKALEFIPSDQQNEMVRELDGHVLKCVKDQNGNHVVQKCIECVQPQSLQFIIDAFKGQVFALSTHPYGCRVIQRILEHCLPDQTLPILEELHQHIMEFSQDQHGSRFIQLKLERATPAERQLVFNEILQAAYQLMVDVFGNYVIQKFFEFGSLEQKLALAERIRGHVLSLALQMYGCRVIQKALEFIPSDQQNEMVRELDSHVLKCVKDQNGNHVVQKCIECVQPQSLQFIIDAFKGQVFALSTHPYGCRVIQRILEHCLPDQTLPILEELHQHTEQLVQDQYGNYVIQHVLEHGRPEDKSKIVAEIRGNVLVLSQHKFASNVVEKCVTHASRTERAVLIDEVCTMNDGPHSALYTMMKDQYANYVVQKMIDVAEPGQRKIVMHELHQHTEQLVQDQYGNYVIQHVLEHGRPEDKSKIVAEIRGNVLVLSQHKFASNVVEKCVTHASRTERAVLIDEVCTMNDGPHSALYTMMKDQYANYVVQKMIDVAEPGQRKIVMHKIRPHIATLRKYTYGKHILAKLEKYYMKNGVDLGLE

[5] = biological target: T4, PUM1 PUF GR repeat 2 (Homo sapiens) (UniProt Q14671); test: one hybrid; conditions: yeast three-hybrid; higher affinity than wild-type NRE; protein in cells; protein details: Gal4 activation domain fusion; variant of NRE
T4 sequence: T1 sequence with N72G, Q76R

[6] = biological target: T5, PUM1 PUF GR (repeat 6 Gly12/Arg16) (Homo sapiens) (UniProt Q14671); test: one hybrid; conditions: yeast three-hybrid; purified recombinant protein; variant of NRE
T5 sequence: T1 sequence with N218G, Q222R

[7] = biological target: T6, PUM1 PUF CR (repeat 6 Cys12/Arg16) (Homo sapiens) (UniProt Q14671); test: one hybrid; conditions: yeast three-hybrid; purified recombinant protein; variant of NRE
T6 sequence: T1 sequence with N218C, Q222R

[8] = biological target: T7, PUM1 PUF TR (repeat 6 Thr12/Arg16) (Homo sapiens) (UniProt Q14671); test: one hybrid; conditions: yeast three-hybrid; protein in cells; protein details: Gal4 activation domain fusion; variant of NRE
T7 sequence: T1 sequence with N218T, Q222R

[9] = biological target: T8, PUM1 PUF AR (repeat 6 Ala12/Arg16) (Homo sapiens) (UniProt Q14671); test: one hybrid; conditions: yeast three-hybrid; protein in cells; protein details: Gal4 activation domain fusion; variant of NRE
T8 sequence: T1 sequence with N218A, Q222R

[10] = biological target: T9, PUM1 PUF SR (repeat 6 Ser12/Arg16) (Homo sapiens) (UniProt Q14671); test: one hybrid; conditions: yeast three-hybrid; protein in cells; protein details: Gal4 activation domain fusion; variant of NRE
T9 sequence: T1 sequence with N218S, Q222R

[11] = biological target: T10, PUM1 PUF GR repeat 4 (Homo sapiens) (UniProt Q14671); test: one hybrid; conditions: yeast three-hybrid; higher affinity than wild-type NRE; protein in cells; protein details: Gal4 activation domain fusion; variant of NRE
T10 sequence: T1 sequence with N146G, Q150R

[12] = biological target: T11, PUM1 PUF GR repeat 3 (Homo sapiens) (UniProt Q14671); test: one hybrid; conditions: yeast three-hybrid; higher affinity than wild-type NRE; protein in cells; protein details: Gal4 activation domain fusion; variant of NRE
T11 sequence: T1 sequence with C108G, Q112R

[13] = significantly decreased, variant of NREx2

## CCGGCUAGCAAUUGUAUAUAUUAAUAUAUAAAAGCAUG [NREstem7]
[1]; variant of NRE
  binding result: binds

## CCGGCUAGCAAUUGUAUAUCUUAAUUUAAUAAAGCAUG [NREA8C]
[2]
  binding result: binds

## CCGGCUAGCAAUUGUAUAUAUUAAUAUAUUAAAGCAUG [NREstem6]
[1]; variant of NRE
  binding result: binds

## CCGGCUAGCAAUUGUAUAUAUUAAUAUAUACAAGCAUG [NREstem8]
[1]; bound with less efficiency, variant of NRE
  binding result: binds more weakly

## AUUGCAUAUA [NREU3C (Fl)]
[3]
  binding result: binds more weakly

## CCGGCUAGCAAUUGUAUAUAUUAAUAUAAUAAAGCAUG [NREstem5]
[1]; variant of NRE
  binding result: binds

## CCGGCUAGCAAUUGUUGUAUAUAAUAUAUUAAUUUAAUAAAGCAUG [NREx2]
[1]
  binding result: binds
[4]; more efficient than 8-repeat PUF with its cognate RNA
  binding result: binds

## CCGGCUAGCAAUUGUAUACAUUAAUUUAAUAAAGCAUG [NREU7C]
[5]
  binding result: binds

## CCGGCUAGCAAUCCCUGUAUAUAAUAUAUUAAUUUAAUAAAGCAUG [NREx2mut1]
[1]; binds as well as NREx2, variant of NREx2
  binding result: binds
[4]; [13]
  binding result: binds more weakly

## CCGGCUAGCAAUUGGAUAUAUUAAUUUAAUAAAGCAUG [NREU3G]
[6]
  binding result: no binding
[7]
  binding result: no binding
[8]
  binding result: no binding
[9]
  binding result: no binding
[10]
  binding result: no binding

## CCGGCUAGCAAUUGAAUAUAUUAAUUUAAUAAAGCAUG [NREU3A]
[6]
  binding result: no binding
[7]
  binding result: no binding
[8]
  binding result: no binding
[9]
  binding result: no binding
[10]
  binding result: no binding

## CCGGCUAGCAAUUGCAUAUAUUAAUUUAAUAAAGCAUG [NREU3C]
[6]
  binding result: binds
[7]
  binding result: binds
[8]
  binding result: binds
[9]
  binding result: binds
[10]
  binding result: binds

## CCGGCUAGCAAUUGUCCCCUAUAAUAUAUUAAUUUAAUAAAGCAUG [NREx2mut2]
[4]; [13]
  binding result: binds more weakly

## CCGGCUAGCAAUUGUACAUAUUAAUUUAAUAAAGCAUG [NREU5C]
[11]
  binding result: binds

## CCGGCUAGCAAUUGUAUCUAUUAAUUUAAUAAAGCAUG [NREA6C]
[12]
  binding result: binds
